At least one structure is not confirmed: it was looked up by name or label, or the drawing left a doubt.
Tested on: PKD organoids or isogenic controls
Test: Cyst formation in adherent kidney organoids treated with forskolin or 8-Br-cAMP
Assay type: cell-based, human
From the text: Cyst formation. In adherent cultures (untreated), ‘cysts’ were identified as large, balloon-like, translucent structures that swayed in response to agitation. Flat rings and dilated tubules were not counted as cysts and occasionally appeared even in non-PKD controls. […] Wells were imaged using a Nikon TiE inverted wide-field microscope and cysts were quantified using ImageJ cell counter. To generate large cysts in suspension, adherent organoids were microdissected with a 23-gauge syringe needle from 24-well plates on an inverted phase-contrast microscope, and carefully transferred using a transfer pipette into a low-adhesion 6-well plate (Corning) containing 2 ml RB. The organoids were isolated on the twenty-first day of differentiation, before cysts formed. RB media was changed by gravity every three days, and cystogenesis was assessed at two weeks after replating.

SMILES: C=C[C@@]1(C)CC(=O)[C@]2(O)[C@@]3(C)[C@@H](O)CCC(C)(C)[C@@H]3[C@H](O)[C@H](OC(C)=O)[C@@]2(C)O1 [Forskolin]
- average expansion at 72 hours, PKD versus control organoids (30 μM, 72 hours): No significant difference
- swelling of adherent organoids into cyst-like structures (adherent cultures, added on day 21 of differentiation): induced rapid and dose-dependent swelling of adherent organoids into round, cyst-like structures

— patent US12320800B2, “High-throughput automation of organoids for identifying therapeutic strategies” (UNIVERSITY OF WASHINGTON, priority 2018, dated 2025)
